This experiment has as its target T1, cyclin G2 (wild-type, yeast two-hybrid bait in pGBKT7) (UniProt Q16589).
T1 sequence: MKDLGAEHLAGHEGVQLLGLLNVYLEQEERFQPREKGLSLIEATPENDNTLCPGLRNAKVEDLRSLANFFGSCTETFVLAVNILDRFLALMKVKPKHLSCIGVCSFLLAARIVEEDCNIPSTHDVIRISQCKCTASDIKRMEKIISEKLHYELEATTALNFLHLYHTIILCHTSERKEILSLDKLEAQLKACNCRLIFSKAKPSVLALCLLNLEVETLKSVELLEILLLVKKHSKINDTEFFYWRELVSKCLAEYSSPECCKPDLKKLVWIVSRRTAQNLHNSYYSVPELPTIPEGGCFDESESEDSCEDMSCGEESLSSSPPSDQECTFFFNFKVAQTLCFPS
The experiment can be described thus: two-hybrid; cyclin G2 in pGBKT7 as bait, screen of a human fetal brain cDNA library; selection on medium lacking His, Leu and Trp, beta-galactosidase assay; confirmed by retransforming the identified plasmids with the bait.

Results are given in words; binding and its absence hold for the method and conditions named. Some binding calls cover weakened binding; strength is not graded here.

B1: hDpr1 (full-length clone from the human fetal brain cDNA library) (protein, UniProt Q9NYF0 1-836)
chain: MKPSPAGTAKELEPPAPARGEQRTAEPEGRWREKGEADTERQRTRERQEATLAGLAELEYLRQRQELLVRGALRGAGGAGAAAPRAGELLGEAAQRSRLEEKFLEENILLLRKQLNCLRRRDAGLLNQLQELDKQISDLRLDVEKTSEEHLETDSRPSSGFYELSDGASGSLSNSSNSVFSECLSSCHSSTCFCSPLEATLSLSDGCPKSADLIGLLEYKEGHCEDQASGAVCRSLSTPQFNSLDVIADVNPKYQCDLVSKNGNDVYRYPSPLHAVAVQSPMFLLCLTGNPLREEDRLGNHASDICGGSELDAVKTDSSLPSPSSLWSASHPSSSKKMDGYILSLVQKKTHPVRTNKPRTSVNADPTKGLLRNGSVCVRAPGGVSQGNSVNLKNSKQACLPSGGIPSLNNGTFSPPKQWSKESKAEQAESKRVPLPEGCPSGAASDLQSKHLPKTAKPASQEHARCSAIGTGESPKESAQLSGASPKESPSRGPAPPQENKVVQPLKKMSQKNSLQGVPPATPPLLSTAFPVEERPALDFKSEGSSQSLEEAHLVKAQFIPGQQPSVRLHRGHRNMGVVKNSSLKHRGPALQGLENGLPTVREKTRAGSKKCRFPDDLDTNKKLKKASSKGRKSGGGPEAGVPGRPAGGGHRAGSRAHGHGREAVVAKPKHKRTDYRRWKSSAEISYEEALRRARRGRRENVGLYPAPVPLPYASPYAYVASDSEYSAECESLFHSTVVDTSEDEQSNYTTNCFGDSESSVSEGEFVGESTTTSDSEESGGLIWSQFVQTLPIQTVTAPDLHNHPAKTFVKIKASHNLKKKILRFRSGSLKLMTTV
Turning to B1, the binding entry is given as “binds”.

The record behind these values is article PMC6295076.
